Assay results: the supplement of paper PMC12819154, “High-throughput peptide-centric local stability assay extends protein–ligand identification to membrane proteins, tissues and bacteria” (Nature Structural & Molecular Biology, 2025)
Some of the results follow. Most entries show no effect beyond the scatter of the controls.

The chains behind the UniProt entries cited, without tags or fusion partners. Where a name states a change or a piece, a line headed by the entry shows the natural chain unless it says otherwise.
UniProt Q07666, whole entry: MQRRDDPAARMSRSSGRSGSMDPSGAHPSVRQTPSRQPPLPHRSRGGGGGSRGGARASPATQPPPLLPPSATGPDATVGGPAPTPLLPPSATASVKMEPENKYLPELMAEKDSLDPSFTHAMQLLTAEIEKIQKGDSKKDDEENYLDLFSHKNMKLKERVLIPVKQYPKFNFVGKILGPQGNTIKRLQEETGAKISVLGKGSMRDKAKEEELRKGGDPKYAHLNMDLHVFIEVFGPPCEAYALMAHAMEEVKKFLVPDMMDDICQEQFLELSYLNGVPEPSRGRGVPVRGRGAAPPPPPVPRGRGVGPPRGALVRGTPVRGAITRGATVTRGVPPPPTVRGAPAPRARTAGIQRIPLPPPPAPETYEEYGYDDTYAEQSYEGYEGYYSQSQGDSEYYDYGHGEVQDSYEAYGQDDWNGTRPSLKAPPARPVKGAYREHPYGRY
UniProt P82970: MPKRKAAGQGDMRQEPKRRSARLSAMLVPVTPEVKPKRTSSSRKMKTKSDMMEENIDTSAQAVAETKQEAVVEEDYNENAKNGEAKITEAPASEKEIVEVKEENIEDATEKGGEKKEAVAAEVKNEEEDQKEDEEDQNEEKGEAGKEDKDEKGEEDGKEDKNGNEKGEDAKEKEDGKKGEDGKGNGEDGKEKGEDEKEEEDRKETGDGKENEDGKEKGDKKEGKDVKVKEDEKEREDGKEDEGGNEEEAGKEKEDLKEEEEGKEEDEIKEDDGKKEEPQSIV
UniProt Q01081: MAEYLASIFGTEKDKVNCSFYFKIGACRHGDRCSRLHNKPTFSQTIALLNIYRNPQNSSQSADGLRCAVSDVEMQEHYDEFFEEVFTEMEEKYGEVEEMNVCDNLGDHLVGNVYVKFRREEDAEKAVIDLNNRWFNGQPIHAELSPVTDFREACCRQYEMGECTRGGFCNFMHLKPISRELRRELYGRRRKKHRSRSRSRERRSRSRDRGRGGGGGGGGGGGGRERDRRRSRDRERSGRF
UniProt Q13064: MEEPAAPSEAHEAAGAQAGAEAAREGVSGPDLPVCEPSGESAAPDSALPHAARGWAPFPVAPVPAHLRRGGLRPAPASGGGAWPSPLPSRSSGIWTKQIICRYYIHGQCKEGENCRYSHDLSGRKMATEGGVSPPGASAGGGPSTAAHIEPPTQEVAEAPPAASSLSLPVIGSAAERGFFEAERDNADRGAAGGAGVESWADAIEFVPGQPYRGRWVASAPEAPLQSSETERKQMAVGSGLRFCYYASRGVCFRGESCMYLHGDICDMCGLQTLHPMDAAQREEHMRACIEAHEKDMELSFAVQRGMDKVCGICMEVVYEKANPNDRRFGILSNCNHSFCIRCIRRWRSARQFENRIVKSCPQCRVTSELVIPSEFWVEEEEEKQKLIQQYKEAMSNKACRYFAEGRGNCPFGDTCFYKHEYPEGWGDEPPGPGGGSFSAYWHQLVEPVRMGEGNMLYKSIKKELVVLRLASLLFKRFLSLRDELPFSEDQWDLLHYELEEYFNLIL
UniProt Q06732: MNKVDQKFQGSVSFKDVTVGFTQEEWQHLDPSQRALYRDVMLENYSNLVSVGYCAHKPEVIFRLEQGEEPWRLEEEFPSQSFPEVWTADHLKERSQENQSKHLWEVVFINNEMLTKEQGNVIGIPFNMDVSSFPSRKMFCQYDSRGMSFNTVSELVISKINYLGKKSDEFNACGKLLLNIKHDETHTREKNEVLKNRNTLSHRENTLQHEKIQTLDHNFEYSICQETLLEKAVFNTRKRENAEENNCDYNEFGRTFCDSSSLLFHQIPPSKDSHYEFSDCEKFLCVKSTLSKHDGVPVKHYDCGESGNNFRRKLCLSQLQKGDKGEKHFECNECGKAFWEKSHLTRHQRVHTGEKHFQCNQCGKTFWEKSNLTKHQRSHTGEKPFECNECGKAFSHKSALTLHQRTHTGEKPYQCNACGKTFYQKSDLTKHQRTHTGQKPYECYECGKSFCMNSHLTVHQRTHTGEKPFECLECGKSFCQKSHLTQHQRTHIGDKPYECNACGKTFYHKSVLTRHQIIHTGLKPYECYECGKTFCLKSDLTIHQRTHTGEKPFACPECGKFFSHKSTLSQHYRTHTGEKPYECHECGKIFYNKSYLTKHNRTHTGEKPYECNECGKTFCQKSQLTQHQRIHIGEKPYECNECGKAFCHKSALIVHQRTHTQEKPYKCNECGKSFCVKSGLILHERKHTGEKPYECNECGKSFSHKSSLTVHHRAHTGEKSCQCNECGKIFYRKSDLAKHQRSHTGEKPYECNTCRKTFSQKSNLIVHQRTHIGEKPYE
UniProt Q05823: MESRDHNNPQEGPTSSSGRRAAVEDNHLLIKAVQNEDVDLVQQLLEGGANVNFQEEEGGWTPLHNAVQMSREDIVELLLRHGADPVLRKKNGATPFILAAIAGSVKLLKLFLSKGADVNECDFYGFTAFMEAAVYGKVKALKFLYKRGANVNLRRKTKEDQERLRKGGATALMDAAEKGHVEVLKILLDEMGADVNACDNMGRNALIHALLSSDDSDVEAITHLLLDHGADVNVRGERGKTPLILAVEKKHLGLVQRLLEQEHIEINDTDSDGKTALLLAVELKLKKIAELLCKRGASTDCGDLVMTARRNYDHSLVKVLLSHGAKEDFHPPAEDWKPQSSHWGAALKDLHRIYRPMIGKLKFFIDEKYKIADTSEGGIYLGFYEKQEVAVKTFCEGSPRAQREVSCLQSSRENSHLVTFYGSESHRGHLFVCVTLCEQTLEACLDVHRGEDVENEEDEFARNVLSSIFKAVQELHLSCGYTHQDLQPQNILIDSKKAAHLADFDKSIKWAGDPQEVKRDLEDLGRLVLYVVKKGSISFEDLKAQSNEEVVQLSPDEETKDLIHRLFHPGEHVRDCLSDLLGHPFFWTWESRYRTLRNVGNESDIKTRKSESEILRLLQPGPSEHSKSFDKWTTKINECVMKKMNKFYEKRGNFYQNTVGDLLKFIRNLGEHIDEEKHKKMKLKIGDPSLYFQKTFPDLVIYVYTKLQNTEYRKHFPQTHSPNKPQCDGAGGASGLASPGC
UniProt Q07352: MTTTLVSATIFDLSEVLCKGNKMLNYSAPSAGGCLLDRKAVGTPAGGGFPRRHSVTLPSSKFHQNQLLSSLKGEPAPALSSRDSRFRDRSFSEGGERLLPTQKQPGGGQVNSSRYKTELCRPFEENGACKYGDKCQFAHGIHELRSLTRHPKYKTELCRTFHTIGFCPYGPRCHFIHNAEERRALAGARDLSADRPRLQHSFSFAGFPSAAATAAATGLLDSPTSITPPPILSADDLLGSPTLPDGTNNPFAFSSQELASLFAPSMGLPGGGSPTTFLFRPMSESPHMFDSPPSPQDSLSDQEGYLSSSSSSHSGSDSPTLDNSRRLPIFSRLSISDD
UniProt Q02487, whole entry: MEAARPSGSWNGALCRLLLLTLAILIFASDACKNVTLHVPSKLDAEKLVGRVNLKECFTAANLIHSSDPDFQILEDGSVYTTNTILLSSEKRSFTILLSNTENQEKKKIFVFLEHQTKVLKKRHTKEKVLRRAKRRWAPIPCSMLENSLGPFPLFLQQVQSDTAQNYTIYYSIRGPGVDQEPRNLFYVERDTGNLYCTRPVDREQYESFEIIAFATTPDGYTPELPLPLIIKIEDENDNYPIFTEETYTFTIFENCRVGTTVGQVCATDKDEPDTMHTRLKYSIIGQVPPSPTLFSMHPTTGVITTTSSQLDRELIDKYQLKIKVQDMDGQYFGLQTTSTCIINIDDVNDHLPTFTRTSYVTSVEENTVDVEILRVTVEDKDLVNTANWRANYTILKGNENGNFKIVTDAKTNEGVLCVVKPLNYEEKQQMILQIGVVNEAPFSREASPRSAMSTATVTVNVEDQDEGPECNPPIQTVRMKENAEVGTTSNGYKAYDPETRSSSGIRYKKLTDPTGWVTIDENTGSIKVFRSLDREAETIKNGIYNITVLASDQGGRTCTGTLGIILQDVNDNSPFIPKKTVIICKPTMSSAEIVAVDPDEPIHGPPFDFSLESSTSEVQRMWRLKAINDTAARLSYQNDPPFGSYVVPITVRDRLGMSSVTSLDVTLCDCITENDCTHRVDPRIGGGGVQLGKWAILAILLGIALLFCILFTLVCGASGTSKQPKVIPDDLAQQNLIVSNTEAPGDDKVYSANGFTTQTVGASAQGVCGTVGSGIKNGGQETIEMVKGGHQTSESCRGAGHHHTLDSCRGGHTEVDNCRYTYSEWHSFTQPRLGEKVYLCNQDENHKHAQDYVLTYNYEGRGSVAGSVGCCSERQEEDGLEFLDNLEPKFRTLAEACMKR
UniProt Q04724: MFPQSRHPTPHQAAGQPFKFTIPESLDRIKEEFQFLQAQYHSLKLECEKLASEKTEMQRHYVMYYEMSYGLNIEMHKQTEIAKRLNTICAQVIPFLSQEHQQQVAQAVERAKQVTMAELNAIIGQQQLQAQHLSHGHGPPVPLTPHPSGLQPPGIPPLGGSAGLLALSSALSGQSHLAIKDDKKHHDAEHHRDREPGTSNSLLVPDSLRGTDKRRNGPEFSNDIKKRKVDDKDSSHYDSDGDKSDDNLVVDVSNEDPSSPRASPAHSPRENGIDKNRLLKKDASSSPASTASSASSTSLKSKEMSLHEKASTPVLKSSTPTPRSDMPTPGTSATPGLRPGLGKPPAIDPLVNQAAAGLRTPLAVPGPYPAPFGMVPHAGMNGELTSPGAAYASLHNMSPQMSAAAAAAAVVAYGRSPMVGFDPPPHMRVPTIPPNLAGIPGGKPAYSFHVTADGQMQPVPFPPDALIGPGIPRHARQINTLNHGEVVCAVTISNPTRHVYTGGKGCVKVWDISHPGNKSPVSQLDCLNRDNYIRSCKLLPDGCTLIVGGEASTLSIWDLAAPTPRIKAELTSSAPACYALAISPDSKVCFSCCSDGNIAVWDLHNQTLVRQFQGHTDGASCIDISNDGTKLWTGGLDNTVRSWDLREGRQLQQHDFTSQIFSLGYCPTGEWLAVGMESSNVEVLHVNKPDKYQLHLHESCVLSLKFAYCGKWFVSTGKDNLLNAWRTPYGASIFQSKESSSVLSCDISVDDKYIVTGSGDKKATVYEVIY

What follows are targets tested with Cc1nc(Nc2ncc(C(=O)Nc3c(C)cccc3Cl)s2)cc(N2CCN(CCO)CC2)n1 [dasatinib] (assay: log2 fold change of tryptic peptide abundance, ligand vs vehicle (limited proteolysis) (log2 ratio); higher = more trypsin-susceptible (destabilized)). Conditions: ligand concentration: 5 uM; sample: K562 cleared lysate.

Row | Target | log2 fold change
1 | KHDRBS1 (peptide sequence: ERVLIPVKQYPK, peptide start residue: 158) (UniProt Q07666) | 0.202
2 | UniProt P82970 (peptide sequence: LSAMLVPVTPEVKPK, peptide start residue: 23) | 0.068
3 | UniProt P84098 (peptide sequence: VWLDPNETNEIANANSR, peptide start residue: 22) | 0.155
4 | U2AF1 (peptide sequence: REEDAEKAVIDLNNR, peptide start residue: 119) (UniProt Q01081) | -0.148
5 | MKRN3 (peptide sequence: GWAPFPVAPVPAHLRR, peptide start residue: 54) (UniProt Q13064) | -0.305
6 | UniProt Q06732 (peptide sequence: SSLTVHHR, peptide start residue: 705) | 0.26
7 | RNASEL (peptide sequence: GGATALMDAAEKGHVEVLK, peptide start residue: 167) (UniProt Q05823) | 0.309
8 | ZFP36L1 (peptide sequence: TFHTIGFCPYGPR, peptide start residue: 199) (UniProt Q07352) | -0.0993
9 | DSC2 (peptide sequence: VYLCNQDENHK, peptide start residue: 838) (UniProt Q02487) | -0.528
10 | TLE1 (peptide sequence: SPMVGFDPPPHMR, peptide start residue: 416) (UniProt Q04724) | -0.0576

Taken from above:
KHDRBS1 (peptide sequence: ERVLIPVKQYPK, peptide start residue: 158) (UniProt Q07666) | log2 fold change: 0.202
MKRN3 (peptide sequence: GWAPFPVAPVPAHLRR, peptide start residue: 54) (UniProt Q13064) | log2 fold change: -0.305
